Source: patent publication US8106071B2, “Compositions for treating hyperproliferative vascular disorders and cancers” (Biobud Co., Ltd., priority 2007, dated 2012)
Some of these results come from one statement about several compounds together.

Tested on: cancer cell lines
Assay: Cytotoxicity to tumor cells (WST-1), cancer cell lines collectively
Type: cell-based
Settings: cancer cell lines (NCI-H460, MDA-MB 435S) not distinguished in the sentence; read-out: IC50 against cancer cell lines
Experimental: To verify whether the compounds of this invention could be used as anticancer agents, their cytotoxicity against tumor cells were examined. NCI-H460 (lung cancer cell line, ATCC, USA) and MDA-MB 435S (breast cancer cell line, ATCC, USA) were used. The cancer cell lines were plated in 100 μl of DMEM (Dulbelcco's Modified Eagle Medium) containing 10% FBS (fetal bovine serum) in 96-well plates at 5×10^3 cells/well and cultured for 24 hr at 37° C. under 10% CO2 atmosphere. After change of medium with 100 μl of DMEM containing 5% FBS, cells were treated with the indicated concentration of the compounds in DMSO. The final concentration of DMSO in medium was adjusted to 1%. Following 48-hr treatment, medium was changed with a fresh 5% FBS DMEM and 10 μl/well of premix WST-1 (Takara, Japan) was added for analyzing cell proliferation, followed by 2-hr incubation. Using a ELISA microplate reader, the OD (optical density) values at 450 nm were measured. Compared with no-treatment control, the compounds of this invention were evaluated in terms of their cytotoxicity to cancer cell lines.

| Compound | IC50 [nM] |
| --- | --- |
| CC(=O)c1c(Nc2ccc(F)c(F)c2F)[nH]c2c(Cl)ccc(C)c2c1=O [BD003] | < 1000 |
| CC(=O)c1c(Nc2ccc(Br)cc2Cl)[nH]c2c([N+](=O)[O-])cc(Cl)cc2c1=O [BD002] | < 1000 |
